The values below are quoted from earlier work in article PMC7690861, “Topical Administration of Cannabidiol: Influence of Vehicle-Related Aspects on Skin Permeation Process” (Pharmaceuticals, 2020).

On the set-up of this series: method as in PMID 30534073. The following applies: after gastrointestinal intake; ref [5]; cited from earlier work.

For the molecule `C=C(C)[C@@H]1CCC(C)=C[C@H]1c1c(O)cc(CCCCC)cc1O` [CBD, Cannabidiol], the Bioavailability is recorded as 13–19%.
